This passage reports T/C and survivor count results from PubChem BioAssay AID330 (DTP/NCI, 2004).

The list does not hold the whole screen: it is rich in T/C values a quarter to a half above the control, in often repeated tests (any T/C) and in doses without a T/C. Further doses and runs are listed elsewhere. T/C: endpoint of the treated group in % of that of the vehicle group. Some doses have a count of surviving animals in place of a T/C: the source holds a T/C of zero for them, seemingly a mark for toxic or unscored doses. Some survivor counts are full or nearly so, which does not show that the dose was tolerated: survival well below the control is almost never listed, so the zero probably covers shortened survival too. Survivors were counted at the toxicity check, usually on the fifth day, unless a day is given; later deaths do not show. Schedule codes are those of the source, taken here to give the interval after Q, in days (D) or hours (H), and the number of doses after X. Additions like (4×) stand for listed records that agree. Some entries were tested several times; their values stand side by side, smallest first. For survival time, this PubChem deposit counts one and a half times the control or more as active, and values a quarter to a half above the control carry no call in these data; other NCI protocols may use other cut-offs. Some T/C values carry the count of animals alive at the toxicity check (mostly the fifth day); without a count, all were alive then.

This assay has as its system P388 leukemia ip, CD2F1 mice, survival T/C. The experiment in a line: NCI In Vivo Anticancer Drug Screen. Data for tumor model P388 Leukemia (intraperitoneal) in CD2F1 (CDF1) mice. Particulars: T/C endpoint: median survival time, higher T/C = longer survival.
Setting [1] is: dose: 25.0 mg/kg/injection, schedule: Q01DX005 (ip), vehicle: Klucel (hydroxypropylcellulose) (HPC).
Setting [2] is: dose: 50.0 mg/kg/injection, schedule: Q01DX005 (ip), vehicle: Klucel (hydroxypropylcellulose) (HPC).
[3] abbreviates: dose: 100.0 mg/kg/injection, schedule: Q01DX005 (ip), vehicle: Klucel (hydroxypropylcellulose) (HPC).
Where [4] appears, read: dose: 200.0 mg/kg/injection, schedule: Q01DX005 (ip), vehicle: Klucel (hydroxypropylcellulose) (HPC).
The mark [5] stands for this setting: dose: 200.0 mg/kg/injection, schedule: Q01DX005 (ip), vehicle: saline.
Setting [6] is: dose: 400.0 mg/kg/injection, schedule: Q01DX001 (ip), vehicle: saline with Tween-80.
The mark [7] stands for this setting: dose: 12.5 mg/kg/injection, schedule: Q01DX009 (ip), vehicle: water.
Where [8] appears, read: dose: 25.0 mg/kg/injection, schedule: Q01DX009 (ip), vehicle: saline.
Where [9] appears, read: dose: 25.0 mg/kg/injection, schedule: Q01DX009 (ip), vehicle: water.

`C[CH2][Sn]([O][Sn]([Cl])([CH2]C)[c]1ccccc1)[c]1ccccc1` (stereo not drawn): the T/C reads like this: (dose: 6.25 mg/kg/injection, schedule: Q01DX005 (ip), vehicle: Klucel (hydroxypropylcellulose) (HPC)) 125 % of control; (dose: 12.5 mg/kg/injection, schedule: Q01DX005 (ip), vehicle: Klucel (hydroxypropylcellulose) (HPC)) 138 % of control [4 of 6 alive]; under setting [1], 126 % of control [5 of 6 alive]. In addition, the survivor count under setting [1] is recorded as 0 of 6, the survivor count under setting [2] was 0 of 6, the survivor count under setting [3] is recorded as 0 of 6 and the survivor count under setting [4] is 0 of 6.

As for `CCn1cnc2c(SC)ncnc21`, the survivor count (dose: 200.0 mg/kg/injection, schedule: Q04DX003 (ip), vehicle: other) is 0 of 6 and the survivor count (dose: 400.0 mg/kg/injection, schedule: Q04DX003 (ip), vehicle: other) is 0 of 6.

As to `O=C(Nc1cccc2c(NC(=O)N3CCCCC3)cccc12)N1CCCCC1`, the survivor count is, setting by setting: (dose: 60.0 mg/kg/injection, schedule: Q01DX005 (ip), vehicle: saline with Tween-80) 6 of 6 (2×); (dose: 120.0 mg/kg/injection, schedule: Q01DX005 (ip), vehicle: saline with Tween-80) 6 of 6.

In the case of `CC(C)(C)N1COC2CCCC21` (stereo not drawn), the T/C is 134 % of control (dose: 50.0 mg/kg/injection, schedule: Q01DX005 (ip), vehicle: saline, evaluated on day 20); 127 % of control (dose: 50.0 mg/kg/injection, schedule: Q01DX005 (ip), vehicle: saline, evaluated on day 30); 134 % of control (dose: 100.0 mg/kg/injection, schedule: Q01DX005 (ip), vehicle: saline, evaluated on day 20); 128 % of control (dose: 100.0 mg/kg/injection, schedule: Q01DX005 (ip), vehicle: saline, evaluated on day 30). The survivor count under setting [5] is reported as 3 of 6.

For the compound `C=CCn1c(COc2c(I)cc(I)c3cccnc23)n[nH]c1=S`, the T/C by setting is: (dose: 25.0 mg/kg/injection, schedule: Q01DX005 (ip), vehicle: Klucel (hydroxypropylcellulose) (HPC), evaluated on day 20) 125 % of control; (dose: 25.0 mg/kg/injection, schedule: Q01DX005 (ip), vehicle: Klucel (hydroxypropylcellulose) (HPC), evaluated on day 30) 133 % of control; under setting [2], 125 % of control. The survivor count is listed as 3 of 5 under setting [2], 5 of 5 under setting [3] and 4 of 5 under setting [4].

With `CCNC(=O)OCc1c(-c2ccccc2)nc2sccn12`, the survivor count reads like this: (dose: 100.0 mg/kg/injection, schedule: Q01DX001 (ip), vehicle: Klucel (hydroxypropylcellulose) (HPC)) 2 of 6; (dose: 200.0 mg/kg/injection, schedule: Q01DX001 (ip), vehicle: Klucel (hydroxypropylcellulose) (HPC)) 1 of 6; (dose: 400.0 mg/kg/injection, schedule: Q01DX001 (ip), vehicle: Klucel (hydroxypropylcellulose) (HPC)) 0 of 6.

Turning to `O=P(CCC(O)c1ccccc1)(c1ccccc1)c1ccccc1` (stereo not drawn), the survivor count (dose: 100.0 mg/kg/injection, schedule: Q01DX009 (ip), vehicle: saline sonified) is recorded as 4 of 6.

As to `NCCSSc1ccc([N+](=O)[O-])cc1`, the survivor count is, setting by setting: (dose: 50.0 mg/kg/injection, schedule: Q04DX002 (ip), vehicle: Klucel (hydroxypropylcellulose) (HPC)) 4 of 5; (dose: 100.0 mg/kg/injection, schedule: Q04DX002 (ip), vehicle: Klucel (hydroxypropylcellulose) (HPC)) 1 of 5; (dose: 200.0 mg/kg/injection, schedule: Q04DX002 (ip), vehicle: Klucel (hydroxypropylcellulose) (HPC)) 0 of 5; (dose: 400.0 mg/kg/injection, schedule: Q04DX002 (ip), vehicle: Klucel (hydroxypropylcellulose) (HPC)) 0 of 5.

With `CC1CCCC2CCCOCN12` (stereo not drawn), the survivor count under setting [5] is 0 of 6.

For the compound `O=C(N/N=C/c1cc(Br)cc(Br)c1[O-])c1ccccc1.O=C(N/N=C/c1cc(Br)cc(Br)c1[O-])c1ccccc1.[Cu+2]`, the survivor count is given as 2 of 6 (dose: 100.0 mg/kg/injection, schedule: Q01DX001 (ip), vehicle: saline with Tween-80); 0 of 6 (dose: 200.0 mg/kg/injection, schedule: Q01DX001 (ip), vehicle: saline with Tween-80); 0 of 6 under setting [6].

With `O=NNc1ccccn1`, the T/C was 96, 103 (2×), 104 (2×), 105 (2×), 108 (2×), 109 (2×), 111 (3×), 115, 120, 125 % of control (dose: 1.56 mg/kg/injection, schedule: Q01DX009 (ip), vehicle: saline); 100 (2×), 101, 103, 104, 105, 106, 107, 108 (5×), 109, 110 (2×), 111 (2×), 112, 113 (3×), 114 (2×), 115 (2×), 116, 117 (2×), 118 (2×), 119, 120, 123, 124, 131 % of control (dose: 1.56 mg/kg/injection, schedule: Q01DX009 (ip), vehicle: water); 118, 124, 137, 138 % of control (dose: 3.12 mg/kg/injection, schedule: Q01DX005 (ip), vehicle: water); 99, 102, 103, 105, 106, 108, 117 (2×), 118, 119, 122, 124, 125, 127, 128, 136 % of control [5 of 6 alive] (dose: 3.12 mg/kg/injection, schedule: Q01DX009 (ip), vehicle: saline); 124, 127, 128, 129 (2×), 130, 133, 135, 141, 150 % of control (dose: 3.12 mg/kg/injection, schedule: Q01DX009 (ip), vehicle: water); 126 [5 of 6 alive] and 131 % of control (dose: 3.13 mg/kg/injection, schedule: Q01DX009 (ip), vehicle: saline). Further, the T/C was 106, 108, 109, 110, 114, 115, 116, 118, 120, 123 (3×), 124 (4×), 126, 127, 130 (2×), 131 (2×), 132 (3×), 133 (2×), 142 % of control (dose: 3.13 mg/kg/injection, schedule: Q01DX009 (ip), vehicle: water); 131 % of control (dose: 6.0 mg/kg/injection, schedule: Q01DX009 (ip), vehicle: water); 118, 130, 137, 143 % of control (dose: 6.25 mg/kg/injection, schedule: Q01DX005 (ip), vehicle: water); 137 % of control (dose: 6.25 mg/kg/injection, schedule: Q01DX009 (ip), vehicle: saline + alcohol); 103, 106, 109, 112 (2×), 118, 120, 122 (2×), 125, 127, 130 (3×), 135 (2×), 136, 152, 164 % of control (dose: 6.25 mg/kg/injection, schedule: Q01DX009 (ip), vehicle: saline); 108, 117, 122, 124, 127 [5 of 6 alive], 128 (2×), 131, 133 (2×), 134, 136 (2×), 137, 138 (2×), 139, 140 (2×), 141 (5×), 143, 144 (2×), 145 (2×), 147 (2×), 148, 149, 150 (3×), 162, 171 % of control (dose: 6.25 mg/kg/injection, schedule: Q01DX009 (ip), vehicle: water). In addition, the T/C (dose: 12.5 mg/kg/injection, schedule: Q01DX005 (ip), vehicle: water) was 133 [5 of 6 alive], 153, 155, 174 % of control; the T/C (dose: 12.5 mg/kg/injection, schedule: Q01DX009 (ip), vehicle: saline + alcohol) is 137 % of control; the T/C (dose: 12.5 mg/kg/injection, schedule: Q01DX009 (ip), vehicle: saline) was 100, 102, 114, 119, 122, 126 (3×), 131, 137, 140, 146, 146 [5 of 6 alive], 147 (2×), 149, 150, 151, 152 % of control; the T/C under setting [7] is 100, 108, 130, 137 (2×), 139, 140, 141 (2×), 142, 146, 147 (2×), 148, 149, 151, 152 (2×), 153, 153 [5 of 6 alive], 156 (2×), 158 (2×), 160, 161, 162, 163 (2×), 166, 168, 169, 171, 172, 174, 175 % of control; the T/C under setting [8] is 86, 113, 116, 128, 134, 140, 147, 153, 155, 159, 161, 172, 174, 181, 187, 190 % of control; the T/C under setting [9] is 87, 89, 93, 95, 96 (2×), 99 (2×), 100, 101 [5 of 6 alive], 102, 103, 105, 106, 107, 109, 127, 141, 150, 155, 167 % of control. For the same compound, the survivor count runs as follows: under setting [7], 6 of 6; (dose: 25.0 mg/kg/injection, schedule: Q01DX005 (ip), vehicle: water) 6 of 6; under setting [8], 3 of 6 and 6 of 6; under setting [9], 4 of 6 and 6 of 6; (dose: 50.0 mg/kg/injection, schedule: Q01DX005 (ip), vehicle: water) 3 of 6.

As for `Cn1c(=O)[nH]c(Sc2ccccc2)c(C=O)c1=O`, under setting [6], the survivor count is 1 of 6.
